According to PubChem BioAssay AID256 (DTP/NCI, 2004):
The list is a part of this screen's results and no random one: it gathers tests that were run many times, whatever their T/C, doses with no T/C, and many T/C values between a quarter and a half above the control. Further doses and runs are listed elsewhere. T/C: endpoint of the treated group in % of that of the vehicle group. Some doses have a count of surviving animals in place of a T/C: the source files T/C as zero there, which appears to mark a toxic dose or a test without result, not a measured value. Some survivor counts are full or nearly so, which does not show that the dose was tolerated: the source hardly ever lists a survival T/C far under the control, and the zero likely stands for such cases as well. Counts of survivors are from the toxicity check (mostly the fifth day) where no day follows; animals may have died later. Schedule codes are those of the source, read here as Q, the interval in days (D) or hours (H), X, the number of doses. For survival time, the PubChem record calls one and a half times the control and up active, and a quarter to a half above the control has no call in these data; cut-offs in other NCI protocols can differ. Some T/C values carry the count of animals alive at the toxicity check (mostly the fifth day); without a count, all were alive then. Some entries were tested several times; the results are listed from low to high. Brackets with × count equal records among those shown.

Test system: CD2F1 mice, L1210 leukemia ip, survival T/C
Assay: NCI In Vivo Anticancer Drug Screen. Data for tumor model L1210 Leukemia (intraperitoneal) in CD2F1 (CDF1) mice
Details: higher T/C = longer survival
Description: The antitumor activity of compounds was measured in mice bearing transplantable tumors. Survival or tumor size were measured and the results are expressed as the measurement made in the treated group (T) divided by the measurement made in the vehicle treated control group (C). The tumor model used in this assay is L1210 Leukemia (intraperitoneal) in CD2F1 (CDF1) mice

[1] = T/C endpoint: mean survival time, dose: 400.0 mg/kg/injection, schedule: Q01DX009 (ip), vehicle: saline
[2] = T/C endpoint: mean survival time, dose: 400.0 mg/kg/injection, schedule: Q01DX001 (ip), vehicle: saline with Tween-80
[3] = T/C endpoint: mean survival time, dose: 100.0 mg/kg/injection, schedule: Q04DX003 (ip), vehicle: saline with Tween-80
[4] = T/C endpoint: median survival time, dose: 25.0 mg/kg/injection, schedule: Q01DX009 (ip), vehicle: saline
[5] = T/C endpoint: median survival time, dose: 50.0 mg/kg/injection, schedule: Q01DX009 (ip), vehicle: saline
[6] = T/C endpoint: mean survival time, dose: 400.0 mg/kg/injection, schedule: Q04DX003 (ip), vehicle: saline with Tween-80

For `C=CC(C)(C)S(=O)[O-].C[c-]1[c-][c-][c-][c-]1.[C-]#[O+].[C-]#[O+].[Fe+6]`, the survivor count (T/C endpoint: mean survival time, dose: 200.0 mg/kg/injection, schedule: Q04DX002 (ip), vehicle: saline) was 0 of 3.
In the case of `c1ccc(-c2c3ccccc3c(-c3ccccc3)c3c2ccc2ccccc23)cc1`, the survivor count (T/C endpoint: mean survival time, dose: 25.0 mg/kg/injection, schedule: Q01DX009 (ip), vehicle: Klucel (hydroxypropylcellulose) (HPC)) was 3 of 3, the survivor count (T/C endpoint: mean survival time, dose: 50.0 mg/kg/injection, schedule: Q01DX009 (ip), vehicle: Klucel (hydroxypropylcellulose) (HPC)) was 3 of 3 and the survivor count (T/C endpoint: mean survival time, dose: 100.0 mg/kg/injection, schedule: Q01DX009 (ip), vehicle: Klucel (hydroxypropylcellulose) (HPC)) was 3 of 3.
In the case of `CC([NH-])C[NH-].[Cl][Pt+2][Cl]` (stereo not drawn), the survivor count (T/C endpoint: mean survival time, dose: 10.0 mg/kg/injection, schedule: Q01DX009 (ip), vehicle: saline with Tween-80) was 6 of 6 and the T/C (T/C endpoint: mean survival time, dose: 10.0 mg/kg/injection, schedule: Q04DX003 (ip), vehicle: saline with Tween-80) was 140 % of control.
`[Cl][Pt+2][Cl].[NH-]c1ccc(F)c(Cl)c1.[NH-]c1ccc(F)c(Cl)c1` was tested, and the survivor count (T/C endpoint: mean survival time, dose: 100.0 mg/kg/injection, schedule: Q04DX003 (ip), vehicle: distilled water + Tween-80) was 3 of 6 and the survivor count (T/C endpoint: mean survival time, dose: 200.0 mg/kg/injection, schedule: Q04DX003 (ip), vehicle: distilled water + Tween-80) was 0 of 6.
For `O=C1CC2=C(CC(O)=CC=C2)C(=O)O1`, the survivor count [1] was 0 of 6.
In the case of `O=C1C=C(N2C3C4CCC(C4)C32)C(=O)C=C1c1ccccc1` (stereo not drawn), the survivor count [2] was 3 of 6.
For `ClCc1c2ccccc2cc2ccccc12`, the survivor count (T/C endpoint: mean survival time, dose: 50.0 mg/kg/injection, schedule: Q04DX002 (ip), vehicle: saline with Tween-80) was 1 of 3 and the survivor count (T/C endpoint: mean survival time, dose: 100.0 mg/kg/injection, schedule: Q04DX002 (ip), vehicle: saline with Tween-80) was 0 of 3.
With `CC1(C)N=C(N)N=C(N)N1c1cccc(CCCCc2ccc(Cl)c(S(=O)(=O)F)c2)c1` the survivor count (T/C endpoint: mean survival time, dose: 100.0 mg/kg/injection, schedule: Q04DX003 (ip), vehicle: saline sonified) was 6 of 6 and the survivor count (T/C endpoint: mean survival time, dose: 400.0 mg/kg/injection, schedule: Q04DX003 (ip), vehicle: saline sonified) was 2 of 6.
For `O=CC(Br)C(Br)c1ccccc1` (stereo not drawn), the survivor count (T/C endpoint: mean survival time, dose: 50.0 mg/kg/injection, schedule: Q04DX003 (ip), vehicle: saline with Tween-80) was 2 of 6, the survivor count (T/C endpoint: mean survival time, dose: 100.0 mg/kg/injection, schedule: Q01DX009 (ip), vehicle: other) was 6 of 6 and the survivor count [3] was 3 of 6. For the same compound, the survivor count (T/C endpoint: mean survival time, dose: 200.0 mg/kg/injection, schedule: Q01DX009 (ip), vehicle: other) was 0 of 6.
`Nc1ccc2ccc(N)cc2c1` was tested, and the survivor count (T/C endpoint: median survival time, dose: 400.0 mg/kg/injection, schedule: Q01DX009 (ip), vehicle: saline with Tween-80) was 1 of 6.
For `O=S(=O)(O)Sc1ncnc2nc[nH]c12`, the T/C (T/C endpoint: mean survival time, dose: 40.0 mg/kg/injection, schedule: Q01DX009 (ip), vehicle: saline) was 139 % of control, the T/C (T/C endpoint: mean survival time, dose: 80.0 mg/kg/injection, schedule: Q01DX009 (ip), vehicle: saline) was 146 % of control and the T/C (T/C endpoint: mean survival time, dose: 160.0 mg/kg/injection, schedule: Q01DX009 (ip), vehicle: saline) was 142 % of control. The T/C [4] was 134 % of control, the T/C [5] was 146 % of control and the T/C (T/C endpoint: median survival time, dose: 75.0 mg/kg/injection, schedule: Q04DX003 (ip), vehicle: saline) was 134 % of control. The T/C (T/C endpoint: median survival time, dose: 150.0 mg/kg/injection, schedule: Q04DX003 (ip), vehicle: saline) was 142 % of control, the survivor count (T/C endpoint: median survival time, dose: 400.0 mg/kg/injection, schedule: Q01DX009 (ip), vehicle: saline) was 2 of 6 and the survivor count (T/C endpoint: median survival time, dose: 600.0 mg/kg/injection, schedule: Q04DX003 (ip), vehicle: saline) was 1 of 6.
With `Nc1ncnc2nc(SCc3ccccc3)[nH]c12` the survivor count (T/C endpoint: mean survival time, dose: 200.0 mg/kg/injection, schedule: Q01DX001 (ip), vehicle: Klucel (hydroxypropylcellulose) (HPC)) was 0 of 6 and the survivor count (T/C endpoint: mean survival time, dose: 400.0 mg/kg/injection, schedule: Q01DX001 (ip), vehicle: Klucel (hydroxypropylcellulose) (HPC)) was 0 of 6.
For `O=c1n(-c2ccccc2)c(=O)n2n1C1C=CC2C2CC2/C=C\1` (stereo not drawn), the survivor count (T/C endpoint: median survival time, dose: 400.0 mg/kg/injection, schedule: Q04DX002 (ip), vehicle: saline with Tween-80) was 0 of 3.
In the case of `O=C1CSC(=S)N1/N=C/c1cc2c(cc1[N+](=O)[O-])OCO2`, the survivor count (T/C endpoint: mean survival time, dose: 150.0 mg/kg/injection, schedule: Q01DX001 (ip), vehicle: other) was 2 of 6.
`CC(CNC1CCCCC1)OC(=O)c1ccc(N(C)C)cc1` (stereo not drawn) was tested, and the survivor count (T/C endpoint: mean survival time, dose: 300.0 mg/kg/injection, schedule: Q01DX001 (ip), vehicle: saline) was 2 of 6.
For `NC(=O)c1ncn2c(=O)n(CCCl)nnc12`, the T/C (T/C endpoint: median survival time, dose: 1.5 mg/kg/injection, schedule: Q01DX009 (ip), vehicle: saline) was 132 % of control, the T/C (T/C endpoint: median survival time, dose: 3.12 mg/kg/injection, schedule: Q01DX009 (ip), vehicle: saline) was 147 and 147 % of control [5 of 6 alive] and the T/C (T/C endpoint: median survival time, dose: 3.12 mg/kg/injection, schedule: Q01DX009 (ip), vehicle: suspension in saline) was 131 % of control. The T/C [4] was 158 (2×), 352, 365 % of control and the T/C [5] was 101, 126, 132, 137 % of control.
`CCCCC(CCC)(CCN)CCCC` was tested, and the survivor count (T/C endpoint: mean survival time, dose: 25.0 mg/kg/injection, schedule: Q04DX003 (ip), vehicle: saline) was 0 of 6 and the survivor count (T/C endpoint: mean survival time, dose: 50.0 mg/kg/injection, schedule: Q04DX003 (ip), vehicle: saline) was 0 of 6.
With `CCOC(=O)Nc1cc(NCCCCc2ccccc2)c(N)c(N)n1` the survivor count [2] was 0 of 6.
In the case of `c1ccc(SCN2CCN(CSc3ccccc3)CC2)cc1`, the survivor count (T/C endpoint: mean survival time, dose: 200.0 mg/kg/injection, schedule: Q01DX009 (ip), vehicle: saline) was 6 of 6 and the survivor count [1] was 2 of 6.
`COC(=O)C12OCC34C(CC5C(C)C6=CC(=O)OC6=CC5(C)C3C(O)C1O)OC(=O)C(O)C24` (stereo not drawn) was tested, and the T/C (T/C endpoint: median survival time, dose: 0.43 mg/kg/injection, schedule: Q01DX005 (ip), vehicle: Klucel (hydroxypropylcellulose) (HPC)) was 135 % of control, the T/C (T/C endpoint: median survival time, dose: 0.72 mg/kg/injection, schedule: Q01DX005 (ip), vehicle: Klucel (hydroxypropylcellulose) (HPC)) was 143 % of control and the T/C (T/C endpoint: median survival time, dose: 1.0 mg/kg/injection, schedule: Q01DX005 (ip), vehicle: Klucel (hydroxypropylcellulose) (HPC)) was 127 % of control. The T/C (T/C endpoint: median survival time, dose: 1.2 mg/kg/injection, schedule: Q01DX005 (ip), vehicle: Klucel (hydroxypropylcellulose) (HPC)) was 125 % of control, the T/C (T/C endpoint: median survival time, dose: 2.0 mg/kg/injection, schedule: Q01DX005 (ip), vehicle: Klucel (hydroxypropylcellulose) (HPC)) was 128 and 130 % of control [5 of 6 alive] and the T/C (T/C endpoint: median survival time, dose: 3.33 mg/kg/injection, schedule: Q01DX005 (ip), vehicle: Klucel (hydroxypropylcellulose) (HPC)) was 142 % of control. For the same compound, the survivor count (T/C endpoint: median survival time, dose: 4.0 mg/kg/injection, schedule: Q01DX005 (ip), vehicle: Klucel (hydroxypropylcellulose) (HPC)) was 3 of 6.
With `CC([NH-])CC(C)[NH-].[Br][Pt+2][Br]` (stereo not drawn) the T/C (T/C endpoint: mean survival time, dose: 6.25 mg/kg/injection, schedule: Q04DX003 (ip), vehicle: saline with Tween-80) was 134 (2×) and 142 % of control and the T/C (T/C endpoint: mean survival time, dose: 12.5 mg/kg/injection, schedule: Q04DX003 (ip), vehicle: saline with Tween-80) was 134 and 136 % of control.
With `NCc1cnc(N)nc1N` the survivor count [6] was 1 of 6.
In the case of `O=C1CC[C@@H]2CCCC[C@@H]2C1`, the survivor count [3] was 2 of 6 and the survivor count (T/C endpoint: mean survival time, dose: 200.0 mg/kg/injection, schedule: Q04DX003 (ip), vehicle: saline with Tween-80) was 1 of 6.
In the case of `N#Cc1cc([N+](=O)[O-])ccc1Cl`, the survivor count (T/C endpoint: mean survival time, dose: 200.0 mg/kg/injection, schedule: Q01DX009 (ip), vehicle: saline with Tween-80) was 3 of 6 and the survivor count [6] was 2 of 6.
`CC(=O)OCC1OC(n2ncnc2CI)C(OC(C)=O)C(OC(C)=O)C1OC(C)=O` (stereo not drawn) was tested, and the survivor count (T/C endpoint: median survival time, dose: 100.0 mg/kg/injection, schedule: Q01DX005 (ip), vehicle: distilled water + Tween-80) was 0 of 6 and the survivor count (T/C endpoint: median survival time, dose: 200.0 mg/kg/injection, schedule: Q01DX005 (ip), vehicle: distilled water + Tween-80) was 0 of 6.
In the case of `CCOC(=O)Nc1cc(NCCc2ccccc2)c(N)c(N)n1`, the survivor count (T/C endpoint: mean survival time, dose: 200.0 mg/kg/injection, schedule: Q01DX001 (ip), vehicle: saline) was 1 of 6 and the survivor count (T/C endpoint: mean survival time, dose: 400.0 mg/kg/injection, schedule: Q01DX001 (ip), vehicle: saline) was 0 of 6.
With `CC(=O)Nc1ccc(S(=O)(=O)OCCC#N)cc1` the survivor count (T/C endpoint: mean survival time, dose: 400.0 mg/kg/injection, schedule: Q01DX009 (ip), vehicle: saline with Tween-80) was 3 of 6.
For `CC(=O)Oc1cc(-c2ccccc2)c(OC(C)=O)c(N=[N+]=[N-])c1C`, the survivor count [2] was 0 of 3.
